Data as given in US20220177583A1.
No constants are given. Whether binding was seen depends on the method and setting. Some entries that bind do so weakly or less than the wild type. For some of these results: Tags and fused reporters may be left off the sequences shown.

The chains behind the UniProt entries cited, without tags or fusion partners. Where a name states a change or a piece, a line headed by the entry shows the natural chain unless it says otherwise.
UniProt P56747: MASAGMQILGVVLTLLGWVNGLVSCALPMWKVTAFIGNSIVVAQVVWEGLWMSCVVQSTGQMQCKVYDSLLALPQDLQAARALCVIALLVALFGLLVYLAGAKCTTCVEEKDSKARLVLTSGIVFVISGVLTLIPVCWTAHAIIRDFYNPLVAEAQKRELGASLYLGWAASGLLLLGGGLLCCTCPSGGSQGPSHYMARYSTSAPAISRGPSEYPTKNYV

Experiments:
[1] = molecular target: human CLDN6, endogenously expressed on cancer cell lines (human) (UniProt P56747); assay: FACS on OVCA429 cells, 1 wash after the primary, 0, 1 or 2 washes after the Dylight 649 secondary antibody
[2] = molecular target: human CLDN6, endogenously expressed on cancer cell lines (human) (UniProt P56747); assay: FACS binding assay, limiting dilution 0.32, 1.6, 8, 40, 200, 1000 nM, on OV90, ARK2 and UMUC4 cells
[3] = molecular target: human CLDN6, endogenously expressed on cancer cell lines (human) (UniProt P56747); assay: FACS on OVCA429 cells, no wash after the Fab, 0, 1 or 2 washes after the Dylight 649 secondary antibody
[4] = molecular target: human CLDN6, endogenously expressed on cancer cell lines (human) (UniProt P56747); assay: FACS on OVCA429 cells, 2 washes after the Fab, 0, 1 or 2 washes after the Dylight 649 secondary antibody
[5] = molecular target: human CLDN6, endogenously expressed on cancer cell lines (human) (UniProt P56747); assay: FACS on OVCA429 cells, 1 wash after the Fab, 0, 1 or 2 washes after the Dylight 649 secondary antibody
[6] = molecular target: human CLDN6, endogenously expressed on cancer cell lines (human) (UniProt P56747); assay: FACS, OVCA429 cells, anti-human IgG (H+L) secondary
[7] = molecular target: human CLDN6, endogenously expressed on cancer cell lines (human) (UniProt P56747); assay: FACS and immunostaining, OVCA429 cells
[8] = molecular target: human CLDN6, endogenously expressed on cancer cell lines (human) (UniProt P56747); assay: FACS, ARK2 cells
[9] = molecular target: human CLDN6, endogenously expressed on cancer cell lines (human) (UniProt P56747); assay: FACS, 293T-CLDN6-GFP and ARK2 cells
[10] = molecular target: human CLDN6, endogenously expressed on cancer cell lines (human) (UniProt P56747); assay: FACS on ARK2 cells, scFv followed by secondary antibody
[11] = molecular target: human CLDN6, endogenously expressed on cancer cell lines (human) (UniProt P56747); assay: flow cytometry on ARK2 cells, anti-HIS secondary antibody, FL4-H
[12] = molecular target: human CLDN6, endogenously expressed on cancer cell lines (human) (UniProt P56747); assay: flow cytometry and cell staining, ARK2 cells
[13] = molecular target: human CLDN6, endogenously expressed on cancer cell lines (human) (UniProt P56747); assay: flow cytometry, anti-HIS secondary, ARK2 cells

Measured: binding

B1: AB1-11 (antibody, V domains shown)
VH: QVQLVQSGAEVKKPGASVKMSCKASGYTFTTYTMHWVRQAPGQGLEWIGFINPSSGYTDYAQKFQGRVTLTADKSTSTVYMELSSLRSEDTAVYYCANGDYYVAYWGQGTLVTVSS
VL: DIQLTQSPSSLSASVGDRVTMTCTASSSVSSTYFHWYQQKPGKAPKLWIYSTSNLASGVPSRFSGSGSGTDYTLTISSMQPEDAATYYCHQYHRSPLTFGQGTKLEIK
binds: [1] | [2]

B2: AB1-11 Fab (Fab, V domains shown)
VH: QVQLVQSGAEVKKPGASVKMSCKASGYTFTTYTMHWVRQAPGQGLEWIGFINPSSGYTDYAQKFQGRVTLTADKSTSTVYMELSSLRSEDTAVYYCANGDYYVAYWGQGTLVTVSS
VL: DIQLTQSPSSLSASVGDRVTMTCTASSSVSSTYFHWYQQKPGKAPKLWIYSTSNLASGVPSRFSGSGSGTDYTLTISSMQPEDAATYYCHQYHRSPLTFGQGTKLEIK
binds: [3] | [4] | [5] | [6] | [7]

B3: AB1-11 scFv (scFv)
scFv: DIQLTQSPSSLSASVGDRVTMTCTASSSVSSTYFHWYQQKPGKAPKLWIYSTSNLASGVPSRFSGSGSGTDYTLTISSMQPEDAATYYCHQYHRSPLTFGQGTKLEIKGGGGSGGGGSGGGGSQVQLVQSGAEVKKPGASVKMSCKASGYTFTTYTMHWVRQAPGQGLEWIGFINPSSGYTDYAQKFQGRVTLTADKSTSTVYMELSSLRSEDTAVYYCANGDYYVAYWGQGTLVTVSS
binds: [8] | [9] | [10]

B4: BiTE-11 (AB1-11 VL and VH fused with CD3E VH and VL) (bispecific antibody, V domains shown, not shown: small tags and cut ends)
VH: QVQLVQSGAEVKKPGASVKMSCKASGYTFTTYTMHWVRQAPGQGLEWIGFINPSSGYTDYAQKFQGRVTLTADKSTSTVYMELSSLRSEDTAVYYCANGDYYVAYWGQGTLVTVSS
VL: DIQLTQSPSSLSASVGDRVTMTCTASSSVSSTYFHWYQQKPGKAPKLWIYSTSNLASGVPSRFSGSGSGTDYTLTISSMQPEDAATYYCHQYHRSPLTFGQGTKLEIK
binds: [11] | [12] | [13]

B5: TandAb-11 (CLDN6-binding moiety of AB1-11 fused to the CD16A-binding moiety) (bispecific antibody)
chain: QVQLVQSGAEVKKPGESLKVSCKASGYTFTSYYMHWVRQAPGQGLEWMGIINPSGGSTSYAQKFQGRVTMTRDTSTSTVYMELSSLRSEDTAVYYCARGSAYYYDFADYWGQGTLVTVSSGGSGGSGGSDIQLTQSPSSLSASVGDRVTMTCTASSSVSSTYFHWYQQKPGKAPKLWIYSTSNLASGVPSRFSGSGSGTDYTLTISSMQPEDAATYYCHQYHRSPLTFGQGTKLEIKGGSGGSGGSQVQLVQSGAEVKKPGASVKMSCKASGYTFTTYTMHWVRQAPGQGLEWIGFINPSSGYTDYAQKFQGRVTLTADKSTSTVYMELSSLRSEDTAVYYCANGDYYVAYWGQGTLVTVSSGGSGGSGGSSYVLTQPSSVSVAPGQTATISCGGHNIGSKNVHWYQQRPGQSPVLVIYQDNKRPSGIPERFSGSNSGNTATLTISGTQAMDEADYYCQVWDNYSVLFGGGTKLTVLHHHHHH
binds: [11] | [12] | [13]
